Reference: the supplement of paper PMC10331698
± gives the standard deviation of the averaged measurements. Most values lie at the level of the controls, where differences are scatter.

Experiments:
Assay in all cases: level (log10 ratio to DMSO vehicle control); higher = higher biomarker level / cell amount than vehicle control
[1] = compound: NC(=O)C(F)(F)C(F)(F)C(F)(F)C(F)(F)F [Nonafluoropentanamide]; conditions: 2200 nM; in DMSO
Procedure: (§1)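 BioMAP Diversity Plus panel of 12 human primary cell co-culture systems (3C, 4H, LPS, SAg, BT, BF4T, BE3C, CASM3C, HDF3CGF, KF3CT, MyoF, Mphg). Compounds were added 1 h before stimulation and left for 24 h (MyoF 48 h; BT 72 h for soluble read-outs or 6 d for IgG). Biomarkers were read by ELISA, cytotoxicity by SRB, PBMC viability and proliferation by Alamar Blue. Each well value was divided by the mean of 8 DMSO control wells on the same plate and log10 transformed; duplicate blinded samples were tested at 4 concentrations.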

[2] = compound: FC(F)(F)C(F)(F)C(F)(F)C(F)(F)C(F)(F)CCI [1-Iodo-1H,1H,2H,2H-perfluoroheptane]; conditions: 2200 nM; in DMSO
Procedure: as §1

[3] = compound: OCCC(F)(F)C(F)(F)C(F)(F)C(F)(F)F [4:2 Fluorotelomer alcohol]; conditions: 2200 nM; in DMSO
Procedure: as §1

[4] = compound: O=C(O)CCC(F)(F)C(F)(F)C(F)(F)C(F)(F)C(F)(F)F [2H,2H,3H,3H-Perfluorooctanoic acid]; conditions: 2200 nM; in DMSO
Procedure: as §1

[5] = compound: NC(=O)C(F)(F)C(F)(F)C(F)(F)C(F)(F)C(N)=O [Octafluoroadipamide]; conditions: 2200 nM; in DMSO
Procedure: as §1

[6] = compound: O=S(=O)(O)C(F)(F)C(F)(F)OC(F)(F)C(F)(F)F [Perfluoro(2-ethoxyethane)sulfonic acid]; conditions: 2200 nM; in DMSO
Procedure: as §1

[7] = compound: O=C(O)C(F)(F)C(F)(F)C(=O)O [Tetrafluorosuccinic acid]; conditions: 2200 nM; in DMSO
Procedure: as §1

[8] = compound: C=C(C)C(=O)OCCC(F)(F)C(F)(F)C(F)(F)C(F)(F)C(F)(F)C(F)(F)C(F)(F)C(F)(F)F [8:2 Fluorotelomer methacrylate]; conditions: in DMSO
Procedure: as §1

[9] = compound: O=S(=O)(O)CCC(F)(F)C(F)(F)C(F)(F)C(F)(F)C(F)(F)C(F)(F)F [6:2 Fluorotelomer sulfonic acid]; conditions: in DMSO
Procedure: as §1

[10] = compound: NS(=O)(=O)C(F)(F)C(F)(F)C(F)(F)C(F)(F)C(F)(F)C(F)(F)F [Perfluorohexanesulfonamide]; conditions: 2200 nM; in DMSO
Procedure: as §1

[11] = compound: OC(C(F)(F)F)(C(F)(F)F)C(O)(C(F)(F)F)C(F)(F)F [Perfluoropinacol]; conditions: in DMSO
Procedure: as §1

[12] = compound: C=C(C)C(=O)OCCC(F)(F)C(F)(F)C(F)(F)C(F)(F)C(F)(C(F)(F)F)C(F)(F)F [(Perfluoro-5-methylhexyl)ethyl 2-methylprop-2-enoate]; conditions: in DMSO
Procedure: as §1

[13] = compound: COC(=O)CCC(F)(F)C(F)(F)C(F)(F)C(F)(F)F [Methyl 2H,2H,3H,3H-perfluoroheptanoate]; conditions: 2200 nM; in DMSO
Procedure: as §1

[14] = compound: O=C(O)C(F)(F)C(F)(F)C(F)(F)C(F)(F)C(F)(F)C(F)(F)C(F)(F)C(F)(F)Cl [9-Chloro-perfluorononanoic acid]; conditions: in DMSO
Procedure: as §1

Row | Test System | level (log10) [1] | level (log10) [2] | level (log10) [3] | level (log10) [4] | level (log10) [5] | level (log10) [6] | level (log10) [7] | level (log10) ([8]; 740 nM) | level (log10) ([8]; 2200 nM) | level (log10) ([9]; 2200 nM) | level (log10) ([9]; 6700 nM) | level (log10) ([9]; 20000 nM) | level (log10) ([9]; 60000 nM) | level (log10) [10] | level (log10) ([11]; 2200 nM) | level (log10) ([11]; 6700 nM) | level (log10) ([11]; 20000 nM) | level (log10) ([12]; 740 nM) | level (log10) ([12]; 2200 nM) | level (log10) ([12]; 6700 nM) | level (log10) ([12]; 20000 nM) | level (log10) [13] | level (log10) ([14]; 2200 nM) | level (log10) ([14]; 6700 nM) | level (log10) ([14]; 20000 nM)
1 | HDF3CGF:CCL2/MCP-1 | -0.019 ± 0.0099 | 0.0085 ± 0.028 | -0.0475 ± 0.088 | 0.011 ± 0.037 | -0.0005 ± 0.04 | 0.0265 ± 0.0064 | -0.0105 ± 0.00071 | -0.0115 ± 0.0078 | -0.006 ± 0.0014 | 0.0145 ± 0.04 | 0.0075 ± 0.019 | 0.0085 ± 0.021 | 0.008 ± 0.014 | -0.009 ± 0.027 | 0.013 ± 0.0071 | 0.0595 ± 0.0064 | 0.09 ± 0.0085 | -0.0225 ± 0.04 | -0.017 ± 0.0071 | -0.0335 ± 0.0092 | -0.024 ± 0.023 | -0.0125 ± 0.042 | 0.0105 ± 0.011 | 0.0205 ± 0.022 | -0.013 ± 0.021
2 | KF3CT:CD54/ICAM-1 | -0.0055 ± 0.0021 | 0.02 ± 0.016 | 0.0005 ± 0.0021 | -0.0175 ± 0.00071 | -0.007 ± 0.023 | -0.025 ± 0.0028 | -0.0035 ± 0.036 | -0.01 ± 0.0071 | -0.009 ± 0.011 | -0.033 ± 0.0042 | -0.0095 ± 0.0064 | -0.0265 ± 0.0035 | -0.037 ± 0.0071 | -0.0125 ± 0.013 | -0.005 ± 0.0057 | 0.012 ± 0.0099 | 0.0185 ± 0.015 | -0.004 ± 0.0099 | -0.0145 ± 0.012 | -0.01 ± 0.0042 | -0.0175 ± 0.0021 | -0.0015 ± 0.0021 | -0.021 ± 0.0057 | -0.0175 ± 0.00071 | -0.039 ± 0.0014
3 | BF4T:MMP-1 | 0.0025 ± 0.0078 | -0.0015 ± 0.00071 | 0.004 ± 0.016 | -0.0005 ± 0.012 | 0.006 ± 0.027 | 0.003 ± 0.011 | 0.0185 ± 0.039 | 0 ± 0.018 | 0.002 ± 0.0042 | 0.0015 ± 0.019 | -0.0085 ± 0.00071 | -0.0125 ± 0.0078 | 0.0065 ± 0.013 | -0.005 ± 0.0028 | -0.0045 ± 0.00071 | -0.0245 ± 0.00071 | -0.0165 ± 0.0035 | -0.0205 ± 0.005 | -0.0125 ± 0.0035 | -0.0205 ± 0.0021 | -0.0095 ± 0.0021 | 0.004 ± 0.02 | -0.023 ± 0.021 | -0.0115 ± 0.0078 | 0.0245 ± 0.0064
4 | BE3C:Keratin 8/18 | 0 ± 0.017 | -0.0005 ± 0.019 | -0.0235 ± 0.021 | -0.01 ± 0.013 | 0.0035 ± 0.012 | -0.008 ± 0.0028 | -0.01 ± 0.0042 | -0.002 ± 0.057 | 0.005 ± 0.045 | -0.007 ± 0.0085 | 0.001 ± 0.0071 | -0.0185 ± 0.00071 | -0.0085 ± 0.019 | 0.0025 ± 0.005 | -0.008 ± 0.0042 | -0.0145 ± 0.00071 | -0.019 ± 0.0028 | -0.014 ± 0.0099 | -0.007 ± 0.0085 | -0.0185 ± 0.0092 | 0.0005 ± 0.0064 | -0.029 ± 0.03 | 0 ± 0.0071 | -0.0025 ± 0.015 | 0.0095 ± 0.0092
5 | SAg:PBMC Cytotoxicity | 0 ± 0.0085 | -0.005 ± 0.035 | -0.006 ± 0.021 | 0.021 ± 0.0071 | -0.0055 ± 0.029 | 0.027 ± 0.021 | 0.0305 ± 0.052 | 0.025 ± 0.0099 | -0.001 ± 0.033 | 0.04 ± 0.0057 | 0.0105 ± 0.00071 | 0 ± 0.0071 | 0.0305 ± 0.029 | 0.007 ± 0.065 | 0.0335 ± 0.08 | 0.046 ± 0.033 | 0.0855 ± 0.0021 | 0.0235 ± 0.021 | 0 ± 0.034 | -0.0255 ± 0.018 | 0.0155 ± 0.013 | -0.0025 ± 0.013 | 0.0155 ± 0.043 | 0.032 ± 0.028 | 0.0255 ± 0.032
6 | LPS:CXCL8/IL-8 | -0.003 ± 0.062 | 0.009 ± 0.044 | -0.0075 ± 0.0078 | 0.101 ± 0.019 | 0.0195 ± 0.094 | 0.063 ± 0.02 | 0.006 ± 0.0042 | 0.002 ± 0.0042 | -0.01 ± 0.011 | 0.0655 ± 0.0021 | 0.045 ± 0.013 | 0.072 ± 0.064 | 0.192 ± 0.1 | 0.0005 ± 0.023 | 0 ± 0.0014 | -0.003 ± 0.0028 | -0.0315 ± 0.0021 | 0.008 ± 0.011 | -0.0115 ± 0.054 | 0.006 ± 0.045 | 0.016 ± 0.047 | 0.02 ± 0.038 | 0.03 ± 0.068 | 0.019 ± 0.062 | 0.061 ± 0.048
7 | KF3CT:TIMP-2 | -0.005 ± 0.027 | -0.01 ± 0.014 | -0.021 ± 0.0085 | 0.0005 ± 0.0064 | 0.001 ± 0.028 | 0.008 ± 0.0099 | 0.0225 ± 0.05 | -0.006 ± 0.055 | -0.005 ± 0.0014 | -0.0065 ± 0.059 | -0.029 ± 0.0085 | -0.0035 ± 0.012 | 0.0015 ± 0.012 | 0.001 ± 0.0042 | 0 ± 0.0085 | 0.013 ± 0.0085 | 0.0745 ± 0.0064 | -0.0225 ± 0.0078 | -0.035 ± 0.054 | -0.016 ± 0.03 | -0.041 ± 0.052 | 0.0035 ± 0.049 | -0.029 ± 0.041 | -0.0205 ± 0.0021 | -0.0015 ± 0.0021
8 | 4H:CCL2/MCP-1 | -0.0205 ± 0.012 | 0.011 ± 0.018 | -0.0135 ± 0.042 | 0.0125 ± 0.016 | 0.011 ± 0.061 | 0.013 ± 0.018 | -0.0145 ± 0.0078 | -0.0105 ± 0.063 | -0.008 ± 0.071 | -0.0055 ± 0.05 | -0.0135 ± 0.056 | 0.0065 ± 0.029 | -0.02 ± 0.011 | 0.027 ± 0.088 | 0.014 ± 0.05 | -0.058 ± 0.023 | -0.168 ± 0.025 | -0.013 ± 0.017 | -0.014 ± 0.0014 | -0.0135 ± 0.011 | 0.002 ± 0.0042 | -0.0045 ± 0.06 | 0.004 ± 0.045 | -0.001 ± 0.014 | -0.0245 ± 0.0035
9 | BF4T:tPA | -0.0305 ± 0.011 | 0.0045 ± 0.026 | 0.004 ± 0.016 | -0.0015 ± 0.036 | -0.0275 ± 0.0021 | 0.0355 ± 0.0021 | 0.01 ± 0.014 | 0.0195 ± 0.046 | -0.0305 ± 0.019 | 0.0035 ± 0.06 | -0.008 ± 0.027 | -0.036 ± 0.028 | -0.0355 ± 0.036 | -0.006 ± 0.03 | -0.013 ± 0.055 | -0.028 ± 0.011 | 0.032 ± 0.014 | 0 ± 0.0085 | 0.0015 ± 0.0035 | -0.002 ± 0.0057 | -0.037 ± 0.031 | 0.0075 ± 0.042 | -0.031 ± 0.052 | -0.075 ± 0.0099 | -0.098 ± 0.0099
10 | KF3CT:CXCL10/IP-10 | -0.0125 ± 0.0021 | -0.0005 ± 0.0078 | 0.004 ± 0.0085 | -0.01 ± 0.0071 | -0.0005 ± 0.021 | -0.004 ± 0.0085 | 0.005 ± 0.0014 | 0.001 ± 0.0014 | -0.002 ± 0.0028 | 0.0035 ± 0.0035 | -0.0105 ± 0.011 | -0.0055 ± 0.015 | -0.0135 ± 0.00071 | -0.0095 ± 0.03 | -0.006 ± 0.0057 | 0.0025 ± 0.0035 | -0.0205 ± 0.0064 | -0.001 ± 0.03 | -0.017 ± 0.027 | -0.0085 ± 0.012 | -0.0325 ± 0.00071 | -0.002 ± 0.021 | -0.0105 ± 0.0064 | -0.0235 ± 0.0035 | -0.0715 ± 0.0092
